Measurements reported in PubChem BioAssay AID1224826 (NIAID, 2016).

Test: 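Genes that change LPS-induced Tnf promoter activity in mouse macrophages when knocked down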 (primary screen)
Cells: RAW264.7 G9 macrophages from mouse bearing reporters for p65 (GFP) and the Tnf promoter (mCherry)
Reagents: siRNA pool against mouse genes, 100 nM
Timing: 16 h of LPS stimulation, after 2 days of siRNA transfection
Treatment: bacterial lipopolysaccharide (Salmonella minnesota R595), 10 ng/ml
Read-out: 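Imaged Tnf reporter mCherry in nuclei, minus background, normalised per plate to the median and expressed as robust z-scores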
Direction: Tnf reporter robust z-score: higher = stronger Tnf promoter reporter signal after LPS
Rule for the call: 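a well counts as active at a score of -1.3 or below (Tlr4 knock-down control median) or above 3 (raised signal); controls and wells holding fewer than 50 cells are excluded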
Calls: active = Tnf reporter clearly lowered or raised; inactive = no clear change in Tnf reporter
Here is a random part of about 17,000 deposited reagents. About 1,110 of them (6.6%) count as active. 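Active means lowered or raised reporter signal; replicate intensities are raw and not normalised per plate.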 A number with no mark means an inactive call. Further read-outs or replicates are left out here. Reagent sequences are not shown.

Slc16a13
- Tnf reporter robust z-score: -0.51
- fewer than 50 cells in well: enough cells in well

Mxd3 (Max dimerization protein 3)
- Tnf reporter robust z-score: -1.04
- fewer than 50 cells in well: enough cells in well

Or5p58 (olfactory receptor family 5 subfamily P member 58)
- Tnf reporter robust z-score: 1.89
- fewer than 50 cells in well: enough cells in well

Itih4 (inter alpha-trypsin inhibitor, heavy chain 4)
- Tnf reporter robust z-score: 0.84
- fewer than 50 cells in well: enough cells in well

D6Ertd160e (DNA segment, Chr 6, ERATO Doi 160, expressed)
- Tnf reporter robust z-score: 0.2
- fewer than 50 cells in well: enough cells in well

Aoc1 (amine oxidase, copper-containing 1)
- Tnf reporter robust z-score: -1.23
- fewer than 50 cells in well: enough cells in well

The list goes on, starting with the last 2 of the part before.
D6Ertd160e (DNA segment, Chr 6, ERATO Doi 160, expressed)
- Tnf reporter robust z-score: 0.2
- fewer than 50 cells in well: enough cells in well

Aoc1 (amine oxidase, copper-containing 1)
- Tnf reporter robust z-score: -1.23
- fewer than 50 cells in well: enough cells in well

9430077A04Rik (RIKEN cDNA 9430077A04 gene)
- Tnf reporter robust z-score: -0.26
- fewer than 50 cells in well: enough cells in well

Ezh1 (enhancer of zeste 1 polycomb repressive complex 2 subunit)
- Tnf reporter robust z-score: -1.86 (active)
- fewer than 50 cells in well: enough cells in well

Cisd1 (CDGSH iron sulfur domain 1)
- Tnf reporter robust z-score: -0.4
- fewer than 50 cells in well: enough cells in well

Zfp7 (zinc finger protein 7)
- Tnf reporter robust z-score: -0.32
- fewer than 50 cells in well: enough cells in well

Ssr3 (signal sequence receptor, gamma)
- Tnf reporter robust z-score: -0.47
- fewer than 50 cells in well: enough cells in well

N4bp3 (NEDD4 binding protein 3)
- Tnf reporter robust z-score: -0.17
- fewer than 50 cells in well: enough cells in well
